# Experimental data as given in PubChem BioAssay AID2685 (National Center for Advancing Translational Sciences (NCATS), 2010).
# Some of the results follow. Further columns of the screen follow, without active or inactive calls. The list favours compounds with an active or inconclusive main result. Potencies come from curve fits of mixed quality, noted in brackets.
# Assay: qHTS Assay for Lipid Storage Modulators in Drosophila S3 Cells;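 on cell number change: cells counted by Cell Tracker Red CMTPX staining in the red channel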
# Details: BODIPY lipid droplet fluorescence, 18-24 h; for cell number change: measured here: cell count max response, cells fed with added oleic acid
# In short: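 Drosophila S3 cells loaded with oleic acid (400 uM, as added) and compounds at several concentrations; lipid droplets imaged by 488-nm laser-scanning cytometry, 500–530 nm intensity and object ratio to cell channel. Percent activity normalized to 20 uM Triacsin C.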
# [1] = measured here: lipid fluorescence (Fed channel) AC50, cells fed with added oleic acid
# [2] = measured here: cell number channel AC50, cells fed with added oleic acid
Structure (SMILES),cell number change,AC50 [1],AC50 [2]
O=C1/C(=C/c2ccc(F)cc2)SC(=S)N1CC(=O)N1CCCCC1c1cccnc1 (stereo unspecified),-21.7%,"29.1 µM [falling, single point]",
O=C(NCc1ccc2c(c1)OCO2)c1cccc(C(=O)NCc2ccc3c(c2)OCO3)c1,-18.8%,"2.06 µM [rising, single point]",
COc1ccc(/C=C/C(=O)ONC2=NCCCCC2)cc1OC,71.8%,"0.116 µM [falling, full curve]","29.1 µM [rising, single point]"
COc1ccc(S(=O)(=O)Nc2ccccn2)cc1OC,,"0.58 µM [falling, single point]",
CCn1c(=O)c(=O)[nH]c2cc(C(=O)N3CCN(Cc4ccc5c(c4)OCO5)CC3)ccc21,-30.5%,,"0.184 µM [falling, full curve, poor fit]"
COC(=O)C1=C(C)NC(C)=C(C(=O)OC)C1c1ccc(NC(C)=O)cc1,-0.875%,,
Cc1sc2ncnc(N3CCC(C(=O)Nc4nc(-c5ccc(F)cc5)cs4)CC3)c2c1C,-9.08%,,
Cc1nn(C)cc1NC(=O)c1nn(C)cc1[N+](=O)[O-],7.62%,"32.6 µM [falling, single point]",
COC(=O)c1sc(-c2ccc(Cl)cc2)cc1N,-7.4%,"1.3 µM [rising, partial curve, poor fit]",
CC(C)(C)c1ccc(C(=O)NCCOc2ccccc2F)cc1,2.7%,"29.1 µM [falling, single point]",
Cc1ccc(C)c(C(C)NC(=O)c2ccccc2Br)c1 (stereo unspecified),0.437%,"2.91 µM [rising, single point]",
Cc1cc(S(=O)(=O)NCC2CC2)c(Cl)cc1Cl,-36.8%,,"18.4 µM [falling, single point]"
O=C(O)c1ccc(-c2nc3scc(-c4ccccc4)c3c(=O)[nH]2)cc1,,"5.8 µM [falling, single point]",
O=C(COC(=O)c1ccc(CO)cc1)NCc1cccs1,-3.34%,"0.731 µM [rising, full curve]",
O=[N+]([O-])c1ccc(/C=N/n2c(-c3ccccc3)n[nH]c2=S)cc1,-21.8%,"11.6 µM [falling, partial curve, poor fit]",
C/C(=N/NC(=O)c1cccc(N2CCCC2=O)c1)c1ccc(Br)cc1,12.2%,,
Cc1ccc(C(C)C)c(OCc2nn(CC(=O)c3ccc(OC(F)F)cc3)c3[n+]2CCCCC3)c1,-15.4%,,
CC1CC(C)CN(S(=O)(=O)c2cc(C(=O)O)c(Cl)s2)C1 (stereo unspecified),,"0.0164 µM [falling, full curve, poor fit]",
CCOC(=O)N/N=C\c1sccc1C,15.4%,"14.6 µM [rising, partial curve]",
Cc1ccc(NC2=CC(=O)CC(c3ccccc3)C2)cc1 (stereo unspecified),3.05%,"5.17 µM [rising, partial curve]",
COc1ccc(C2=NOC(C(=O)Nc3ccc(C)cc3)C2)cc1OC (stereo unspecified),,"0.0291 µM [rising, full curve, poor fit]","1.64 µM [rising, partial curve]"

# Looked up by compound from above:
Structure (SMILES),cell number change,AC50 [1],AC50 [2]
Cc1ccc(C(C)C)c(OCc2nn(CC(=O)c3ccc(OC(F)F)cc3)c3[n+]2CCCCC3)c1,-15.4%,,
COC(=O)c1sc(-c2ccc(Cl)cc2)cc1N,-7.4%,"1.3 µM [rising, partial curve, poor fit]",

# Later entries.

Structure (SMILES),cell number change,AC50 [1],AC50 [2]
COc1cc(NCc2ccccc2O)c2ncccc2c1,8.19%,"0.58 µM [falling, single point]",
CC1=C(C)C(=O)N(c2ccccn2)C1=O,-0.612%,,
Cc1ccc(NC(=O)CSc2nnnn2C2CCCC2)cc1S(=O)(=O)N1CCOCC1,22.8%,"2.91 µM [rising, full curve]",
CCSc1nc(O)c(C2OC(=O)c3c2ccc(OC)c3OC)c(=O)n1-c1ccccc1 (stereo unspecified),-51.9%,"7.31 µM [falling, partial curve]","8.2 µM [falling, partial curve]"
O=C(CSc1nc(Nc2ccccc2)nc(N2CCOCC2)n1)Nc1ccccc1Cl,-8.2%,"1.64 µM [rising, partial curve]",
COC(=O)C1C(C(=O)OC)C1(c1ccccc1)c1ccccc1 (stereo unspecified),24.3%,,
CC(=O)N(c1ccccc1)c1nc(/C=C/C(=O)O)cs1,,,"0.00517 µM [falling, full curve, poor fit]"
COc1ccc(/C=C/C(=O)NCCC(=O)N2CCCN(C)CC2)cc1,8.98%,,
Cc1ccc(C(=O)NCCCNC(=O)Cc2ccccc2)cn1,10.9%,,
COc1ccccc1NC(=O)/C(C#N)=C/c1ccncc1,,"0.92 µM [falling, full curve]",
CCc1nnc(NC(=O)CCC(=O)N2CCN(C3c4ccccc4-c4ccccc43)CC2)s1,,"8.2 µM [rising, partial curve]",
Cc1nnc(SC(C)C(=O)NCC2CCCO2)s1 (stereo unspecified),-6.02%,,
CCc1ccccc1NC(=O)Nc1c(C)n(C)n(-c2ccccc2)c1=O,-1.16%,"7.31 µM [rising, single point]",
Cc1nn(-c2ccccc2)c2nc(N)c(C#N)c(-c3ccc(C(C)(C)C)cc3)c12,30.4%,"5.8 µM [falling, single point]",
Cc1cc(C(C)(C)C)oc1C(=O)N(CC(=O)NC1CCCC1)c1c(C)cccc1C,-75%,"29.1 µM [falling, single point]","16.4 µM [falling, single point]"
CCCCNC(=O)c1ccc(NC(=O)CC2SC(N3CCCC3)=NC2=O)cc1 (stereo unspecified),2.98%,"0.00517 µM [falling, full curve, poor fit]",
CCN(Cc1ccccc1)C(=O)c1c[nH]c2ccc(S(=O)(=O)N(C)CCC#N)cc2c1=O,0.245%,"0.206 µM [falling, full curve, poor fit]",
CC(NC(=O)CSC(=S)N(C)C)C12CC3CC(CC(C3)C1)C2 (stereo unspecified),-15.6%,"10.3 µM [falling, partial curve]",
C/C(=N\NC(=S)NCCc1ccccc1)c1ccc(C#N)cc1,71.3%,"0.58 µM [rising, single point]","29.1 µM [rising, single point]"
COc1cccc(OCc2cc(C(=O)N(C)Cc3nccn3C)no2)c1,,"0.13 µM [falling, full curve, poor fit]",
O=C(CCOc1ccccc1)Nc1ccc(Cl)c(S(=O)(=O)N2CCOCC2)c1,-30.8%,"2.31 µM [rising, partial curve]","18.4 µM [falling, single point]"

# Individual results from the results shown.
# Value of O=C1/C(=C/c2ccc(F)cc2)SC(=S)N1CC(=O)N1CCCCC1c1cccnc1 (stereo unspecified) under cell number change: -21.7%
# Value of Cc1ccc(NC(=O)CSc2nnnn2C2CCCC2)cc1S(=O)(=O)N1CCOCC1 under cell number change: 22.8%

# The listing continues:

Structure (SMILES),cell number change,AC50 [1],AC50 [2]
CC(=O)N1CCN(C2c3cccc4cccc(c34)C2NS(=O)(=O)c2ccccc2)CC1 (stereo unspecified),1.01%,"2.31 µM [rising, partial curve]",
CCOC(=O)c1ccc(NC(=O)CCOc2ccccc2)cc1,109%,"6.51 µM [rising, single point]","16.4 µM [rising, partial curve]"
CCCCCCN(C(=O)CCCCCN1C(=O)NC(c2ccc(-c3ccccc3)cc2)C(C(=O)OCc2ccccc2)=C1C)C(C(=O)NCCCC)c1ccc(O)cc1 (stereo unspecified),-1.46%,"1.46 µM [rising, partial curve]",
Cc1cc(C)cc(NC(=O)Nc2cc(-c3ccccc3)nn2C)c1,-9.29%,,"0.0058 µM [falling, full curve, poor fit]"
Cc1ccc(C)c(Cn2nnc3c(=O)[nH]c(C4CCCN(C(=O)c5cccs5)C4)nc32)c1 (stereo unspecified),-4.62%,,
N#CCCN1CCN(Cc2cc(-c3ccccc3)ccc2O)CC1,-23.7%,"4.11 µM [falling, full curve, poor fit]",
CN(C)CCNC(=O)CNC(=S)N(Cc1ccccc1)Cc1ccccc1F,-42.9%,,"23.1 µM [falling, single point]"
OCC[C@H]1C[C@@H](O)[C@H](O)[C@@]2(Cc3ccccc3CCO2)O1,-8.74%,"29.1 µM [rising, single point]",
O=C(CN1C(=O)/C(=C\c2ccccc2Cl)Oc2ccccc21)NCc1cccnc1,-41.7%,"16.4 µM [falling, partial curve]","23.1 µM [falling, single point]"
COC(=O)c1ccc(N2CCN(S(=O)(=O)c3ccc(Br)cc3)CC2)c([N+](=O)[O-])c1,,,"0.731 µM [falling, full curve, poor fit]"
O=C(Nc1ccccc1)O[C@@H]1C[C@H]2CCC(=O)N3CC[C@@H](C1)[C@@H]23,4.85%,,"2.06 µM [rising, partial curve, poor fit]"
O=C(c1ccc(F)cc1)n1ccc(-c2cnc(-c3ccccc3)s2)n1,,,"0.731 µM [rising, single point]"
CCOC(=O)C1C(c2cccnc2)NC(=O)NC1(O)C(F)(F)F (stereo unspecified),-16.8%,"3.26 µM [falling, single point]","0.00731 µM [falling, full curve, poor fit]"
Cc1ccc(-c2[nH]ncc2CN2CCN(C(=O)c3cccs3)CC2)cc1C,-20.8%,"0.00461 µM [rising, full curve, poor fit]",
CCNC(=O)COC(=O)CNC(=O)c1cc(Cl)cc([N+](=O)[O-])c1,35.8%,"14.6 µM [rising, partial curve]","29.1 µM [rising, single point]"
O=C(NCc1ccco1)C1CC(c2ccccc2O)=NO1 (stereo unspecified),2.55%,"7.31 µM [rising, single point]",
Cn1c(=O)c2c([nH]c(=S)n2CCCc2ccccc2)n(C)c1=O,-17.5%,"29.1 µM [falling, single point]",
Cc1ccc(NC(=O)CN(C)C(=O)C2CC(=O)N(Cc3ccccc3)C2)cc1 (stereo unspecified),27.6%,"29.1 µM [rising, single point]",
COc1cc2ccccc2cc1C(=O)N/N=C/c1cccnc1,-5.73%,,
